Measured values from publication PMC4363142.
Results are given in words; binding and its absence hold for the method and conditions named. For some of these results: Binding seen in cells or lysates may run through a third protein. Some entries that bind do so weakly or less than the wild type. For some of these results: Sequences can lack the tags named with a protein. Each block holds one binder with its values, some of them ahead of it.

Assays:
[1] = target: T1, LRGUK-1 wild type (leucine-rich repeats and guanylate kinase-domain containing isoform 1), full length, in pDEST32 (mouse) (UniProt Q9D5S7); assay: two-hybrid; directed test: HOOK2-pDEST22 prey co-transformed into Mav203 yeast with LRGUK^WT-pDEST32, LRGUK^Kaos-pDEST32 or empty pDEST32, growth on selection media
T1 sequence: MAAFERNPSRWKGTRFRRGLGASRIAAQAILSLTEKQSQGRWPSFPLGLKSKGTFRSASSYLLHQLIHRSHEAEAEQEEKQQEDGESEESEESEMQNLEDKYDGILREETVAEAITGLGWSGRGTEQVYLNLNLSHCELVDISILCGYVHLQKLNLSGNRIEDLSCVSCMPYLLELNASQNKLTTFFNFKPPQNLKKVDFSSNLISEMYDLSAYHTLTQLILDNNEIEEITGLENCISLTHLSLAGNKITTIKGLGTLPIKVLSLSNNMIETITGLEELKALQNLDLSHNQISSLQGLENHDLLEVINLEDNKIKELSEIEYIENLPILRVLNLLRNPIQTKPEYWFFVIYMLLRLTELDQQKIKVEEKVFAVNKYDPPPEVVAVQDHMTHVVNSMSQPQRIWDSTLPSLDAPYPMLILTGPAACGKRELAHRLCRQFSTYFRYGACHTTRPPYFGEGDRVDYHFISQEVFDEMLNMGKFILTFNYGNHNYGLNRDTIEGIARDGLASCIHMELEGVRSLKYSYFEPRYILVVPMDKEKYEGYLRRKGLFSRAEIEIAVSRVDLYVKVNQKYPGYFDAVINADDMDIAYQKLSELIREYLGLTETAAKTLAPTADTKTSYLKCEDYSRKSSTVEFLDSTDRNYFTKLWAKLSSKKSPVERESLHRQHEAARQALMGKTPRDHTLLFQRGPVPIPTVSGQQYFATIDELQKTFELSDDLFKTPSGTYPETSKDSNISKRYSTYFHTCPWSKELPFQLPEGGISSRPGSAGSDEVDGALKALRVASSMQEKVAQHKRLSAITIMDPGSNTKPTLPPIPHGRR

[2] = target: T2, LRGUK^Kaos (LRGUK-1 R528Stop), in pDEST32 (mouse) (UniProt Q9D5S7); assay: as above
T2 sequence: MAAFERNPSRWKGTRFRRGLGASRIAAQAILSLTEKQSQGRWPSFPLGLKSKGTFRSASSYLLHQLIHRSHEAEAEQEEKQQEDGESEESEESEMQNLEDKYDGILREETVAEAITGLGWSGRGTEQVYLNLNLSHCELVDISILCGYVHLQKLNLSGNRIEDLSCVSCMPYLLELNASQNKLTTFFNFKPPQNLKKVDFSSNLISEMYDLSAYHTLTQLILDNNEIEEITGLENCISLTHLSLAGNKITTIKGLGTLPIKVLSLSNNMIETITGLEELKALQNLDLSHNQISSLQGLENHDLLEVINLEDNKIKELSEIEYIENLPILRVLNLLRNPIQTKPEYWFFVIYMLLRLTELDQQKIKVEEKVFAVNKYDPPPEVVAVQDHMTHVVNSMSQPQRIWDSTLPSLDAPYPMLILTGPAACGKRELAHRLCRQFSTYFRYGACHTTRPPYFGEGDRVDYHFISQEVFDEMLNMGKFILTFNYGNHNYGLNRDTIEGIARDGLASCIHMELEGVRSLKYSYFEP

[3] = target: T1, LRGUK-1 wild type (leucine-rich repeats and guanylate kinase-domain containing isoform 1), full length, in pDEST32 (mouse); assay: two-hybrid; library screen: LRGUK^WT-pDEST32 as bait, adult mouse testis cDNA library in pDEST22 as prey, co-transformed into Mav203 yeast (ProQuest Two-Hybrid System)
[4] = target: T3, EGFP-tagged LRGUK-1 (full length mouse Lrguk-1 in pEGFP-C1) (mouse) (UniProt Q9D5S7); assay: co-IP; EGFP-tagged LRGUK-1 expressed in HEK293 cells, precipitated with anti-GFP-Trap-A beads; blot for endogenous HOOK2
T3 sequence: T1 sequence

binding [1]: binds
binding [2]: no binding
binding [3]: binds
B1: HOOK2 C-terminal amino acids 369-716 (longest HOOK2 clone of the testis cDNA library), in pDEST22 (domain or fragment, UniProt Q7TMK6 369-716)
chain: VQELQGQWQEEAMKAEKWLFECRNLEEKCDLVTKEKERLLTERDSLREANEELRCAQLQPRGLAQADLSLDPTPSGLENLAAEILPAELRETLVRLQLENKRLCQQEAADRERQEELQRHLEEANRARHGLEAQQRLNQQQLSELRAQVEELQKALQEQGGKTEDPTLLKRKLEDHLQKLHEADLELQRKREYIEELEPPTDSSTARRIEELQDSLQKKDADLRAMEERYRRYVDKARTVIQTLEPKQRPPTVVSPEFHTLRSQLWERNLRIRQMEMDYEKSRRRQEQEEKLLISAWYSMGMALEHRAGEEHAPAHAQSFLAQQRLATNARRGPLGRQALSLRPTDKH

binding [4]: binds
B2: endogenous HOOK2 of HEK293 cells (protein, UniProt Q96ED9 1-719)
chain: MSVDKAELCGSLLTWLQTFHVPSPCASPQDLSSGLAVAYVLNQIDPSWFNEAWLQGISEDPGPNWKLKVSNLKMVLRSLVEYSQDVLAHPVSEEHLPDVSLIGEFSDPAELGKLLQLVLGCAISCEKKQDHIQRIMTLEESVQHVVMEAIQELMTKDTPDSLSPETYGNFDSQSRRYYFLSEEAEEGDELQQRCLDLERQLMLLSEEKQSLAQENAGLRERMGRPEGEGTPGLTAKKLLLLQSQLEQLQEENFRLESGREDERLRCAELEREVAELQHRNQALTSLAQEAQALKDEMDELRQSSERAGQLEATLTSCRRRLGELRELRRQVRQLEERNAGHAERTRQLEDELRRAGSLRAQLEAQRRQVQELQGQRQEEAMKAEKWLFECRNLEEKYESVTKEKERLLAERDSLREANEELRCAQLQPRGLTQADPSLDPTSTPVDNLAAEILPAELRETLLRLQLENKRLCRQEAADRERQEELQRHLEDANRARHGLETQHRLNQQQLSELRAQVEDLQKALQEQGGKTEDAISILLKRKLEEHLQKLHEADLELQRKREYIEELEPPTDSSTARRIEELQHNLQKKDADLRAMEERYRRYVDKARMVMQTMEPKQRPAAGAPPELHSLRTQLRERDVRIRHLEMDFEKSRSQREQEEKLLISAWYNMGMALQQRAGEERAPAHAQSFLAQQRLATNSRRGPLGRLASLNLRPTDKH
